Results are given in words; binding and its absence hold for the method and conditions named. Binding can be weak; no strength is given.
How the values were obtained:
[1] = biological target: IFNAR1-Δaa331-432 (human); assay: flow cytometry, 293T cells overexpressing the IFNAR1 variant, percentage of PE-positive cells [B]
[2] = biological target: IFNAR1-Δaa32-126, Δaa331-432 (human); assay: as above
IFNAR1-Δaa32-126 (human) [3] = assay: as above
[4] = biological target: IFNAR1-Δaa331-432 (human); assay: flow cytometry on 293T cells expressing the variant
[5] = biological target: IFNAR1-Δaa32-126, Δaa331-432 (human); assay: as above
IFNAR1-Δaa32-126 (human) [6] = assay: as above

Measured: binding

B1: anti-human IFNAR1 monoclonal antibody 10C5 (antibody, V domains shown)
VH: QVQLQQPGTELVKPGSPVKLSCKASGYTFTSFWLNWVQQRPGRGLEWIGKIDPSDSEIRYNQKFKDKATLTVDKSSNTAYIQLSSLTSEDSAVYYCARGGGIYYDYDGAMDYWGQGTSVTVSS
VL: DIQMTQSSSSFSVSLGDRLTITCKASEVIYNRLAWFQQKPGNAPRLLISGATSLETGVPSRFSGSGSRKDYTLSISSLQTEDVATYYCQQYWSSPFTFGSGTKLEIK
notes: Mouse monoclonal antibody from hybridoma CGMCC No. 16287
binds: [1] | [2] | IFNAR1-Δaa32-126 (human) [3] | [4] | [5] | IFNAR1-Δaa32-126 (human) [6]

B2: anti-human IFNAR1 monoclonal antibody 7G4 (antibody, V domains shown)
VH: QVQLQQPGAELVKPGAPVKLSCKASGYTFTSYWMNWVRQRPGRGLEWIGKIDPSDSETHFNQKFRDKATLTVDKSSTTAYIQLSSLTSEDSAVYYCARGGRISFDYDAALDYWGQGTSVTVSS
VL: DILMTQSSSSFSVSLGDRVTITCKSSEVIYNRLAWFQQKPGNAPRLLISGATTLESGFPSRFSGSGSGKDYTLSITSLQIEDVSTYYCQQYWNKPFTFGSGTKLEVK
notes: Mouse monoclonal antibody from hybridoma CGMCC No. 16286
binds: [1] | [2] | IFNAR1-Δaa32-126 (human) [3] | [4] | [5] | IFNAR1-Δaa32-126 (human) [6]

— patent publication US20220144957A1 (IMMUNECENT BIOTECHNOLOGY, published 2022)
